Measurements: publication PMC3414502
Results are given in words; binding and its absence hold for the method and conditions named. In cells and extracts the contact can be indirect. Some binding calls cover weakened binding; strength is not graded here.

Target: endogenous γ-synuclein (MDA-MB-231 cells) (human (endogenous in MDA-MB-231)) (UniProt O76070)
Assay: co-IP; MDA MB 231 lysate (150 mM NaCl, 20 mM HEPES, 2 mM MgCl2); rabbit anti-γ-synuclein antibody on Protein A beads, 4 hours at 4°C; blotted with anti-γ-synuclein and anti-PLCβ2

binding: binds
Substance: endogenous phospholipase Cβ2 (MDA-MB-231 cells) (from UniProt Q00722 1-1185) (enzyme)
